PubChem BioAssay AID1259405 | NCATS – 2018
Screen: 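Mouse-designed siRNAs used to find CHO productivity engineering targets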 (primary screen). System: Chinese hamster CHO-K1 ovary cells with stable secreted eGFP expression. Reagents: single siRNA against mouse genes, 0.8 pmol siRNA per well (2 µl of 400 nM stock). Timing: 3 days. Read-out: 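Per-well intracellular GFP measured by laser scanning cytometry, plus viability from ATP luminescence, each relative to plate median of non-targeting control wells, in %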. Direction: GFP, % of control: higher = more GFP per well, higher productivity; viability (ATP), % of control: higher = more viable cells (more ATP). Call rule: 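Called active when intracellular GFP, relative to negative control, is at or above 120%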.
This is an unselected part of about 50,000 deposited reagents. About 4,000 of all reagents (8%) count as active. 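Mouse siRNA library applied to hamster cells; one well for each siRNA.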 Reagents against one gene are numbered here.

| gene | reagent | GFP, % of control | viability (ATP), % of control | Call |
| --- | --- | --- | --- | --- |
| Rcc2 | 1 | 125 | 98.6 | active |
| Rcc2 | 2 | 72.4 | 61.4 | inactive |
| Rcc2 | 3 | 96.7 | 54.4 | inactive |
| Fam110c | 1 | 75 | 60.2 | inactive |
| Fam110c | 2 | 80.5 | 81.9 | inactive |
| Fam110c | 3 | 61.2 | 65.5 | inactive |
| Tmem67 | 1 | 94.3 | 90.7 | inactive |
| Tmem67 | 2 | 101 | 108 | inactive |
| Tmem67 | 3 | 167 | 155 | active |
| Phip | 1 | 84.8 | 72.5 | inactive |
| Phip | 2 | 55.2 | 56.7 | inactive |
| Phip | 3 | 130 | 109 | active |
| Schip1 | 1 | 95.2 | 87.1 | inactive |
| Schip1 | 2 | 67.5 | 68.3 | inactive |
| Schip1 | 3 | 87.4 | 74.3 | inactive |
| Pabir1 | 1 | 57.8 | 75.9 | inactive |
| Pabir1 | 2 | 89.8 | 88 | inactive |
| Pabir1 | 3 | 46.8 | 69.2 | inactive |
| Dhx15 | 1 | 75.6 | 76.3 | inactive |
| Dhx15 | 2 | 22.6 | 15.5 | inactive |
| Dhx15 | 3 | 74.5 | 77.4 | inactive |
| Lsm14a | 1 | 37.3 | 55.7 | inactive |
| Lsm14a | 2 | 67.6 | 97.4 | inactive |
| Lsm14a | 3 | 191 | 111 | active |
| Gabra5 | 1 | 61.3 | 84.1 | inactive |
| Gabra5 | 2 | 55.6 | 60.7 | inactive |
| Gabra5 | 3 | 68.2 | 69.1 | inactive |
| Slc25a46 | 1 | 61.1 | 93.1 | inactive |
| Slc25a46 | 2 | 54.2 | 101 | inactive |
| Slc25a46 | 3 | 70.5 | 40.7 | inactive |
| Tmem237 | 1 | 90.4 | 56.5 | inactive |
| Tmem237 | 2 | 59.4 | 63.2 | inactive |
| Tmem237 | 3 | 121 | 102 | active |
| Col13a1 | 1 | 71.1 | 73.4 | inactive |
| Col13a1 | 2 | 112 | 78.2 | inactive |
| Col13a1 | 3 | 30.7 | 57.8 | inactive |
| Cyfip1 | 1 | 41.9 | 68.1 | inactive |
| Cyfip1 | 2 | 90.6 | 99.5 | inactive |
| Cyfip1 | 3 | 47.6 | 40.8 | inactive |
| Or52ac1 | 1 | 103 | 36.2 | inactive |
| Or52ac1 | 2 | 44.4 | 57 | inactive |
| Or52ac1 | 3 | 34.6 | 49.5 | inactive |
| Dnttip1 | 1 | 61.6 | 56.2 | inactive |
| Dnttip1 | 2 | 131 | 99 | active |
| Piwil4 | 1 | 34 | 23 | inactive |
| Piwil4 | 2 | 39 | 51.9 | inactive |
| Piwil4 | 3 | 49 | 55.1 | inactive |
| Fbxo30 | 1 | 41.4 | 42.6 | inactive |
| Fbxo30 | 2 | 95.3 | 76.2 | inactive |
| Fbxo30 | 3 | 102 | 73.3 | inactive |
| Fam13c | 1 | 78.7 | 100 | inactive |
| Fam13c | 2 | 93.4 | 91.6 | inactive |
| Fam13c | 3 | 25.2 | 19.6 | inactive |
| Cyp2d34 | 1 | 93.4 | 62.7 | inactive |
| Cyp2d34 | 2 | 67.8 | 81.1 | inactive |
| Cyp2d34 | 3 | 77.6 | 79.4 | inactive |

A few values from the entries so far:
Cyfip1 #3, GFP, % of control → 47.6
Result for Dhx15 #2 in “GFP, % of control”: 22.6
Entry for Piwil4 #3 under “Call”: inactive
Or52ac1 #2, Call → inactive
Under “viability (ATP), % of control”, Fam13c #2 reads 91.6
Result of Tmem237 #1 under “Call”: inactive

The listing continues.
| gene | reagent | GFP, % of control | viability (ATP), % of control | Call |
| --- | --- | --- | --- | --- |
| Ccnj | 1 | 91.9 | 75.2 | inactive |
| Ccnj | 2 | 38.8 | 51.9 | inactive |
| Ccnj | 3 | 101 | 79.1 | inactive |
| Ppic | 1 | 66.9 | 85.9 | inactive |
| Ppic | 2 | 63.4 | 69.7 | inactive |
| Ppic | 3 | 67.8 | 84.3 | inactive |
| Arxes1 | 1 | 124 | 93.1 | active |
| Arxes1 | 2 | 87.9 | 72.9 | inactive |
| Arxes1 | 3 | 78.8 | 68.9 | inactive |
| Dennd2d | 1 | 79.8 | 80.6 | inactive |
| Dennd2d | 2 | 73.7 | 67.4 | inactive |
| Dennd2d | 3 | 99.1 | 111 | inactive |
| Ggt7 | 1 | 42.6 | 61 | inactive |
| Ggt7 | 2 | 56.8 | 65.8 | inactive |
| Ggt7 | 3 | 64.6 | 68.2 | inactive |
| Obox5 | 1 | 76.7 | 104 | inactive |
| Obox5 | 2 | 84 | 65.6 | inactive |
| Obox5 | 3 | 65.1 | 59.9 | inactive |
| Tesk1 | 1 | 104 | 77.7 | inactive |
| Tesk1 | 2 | 72.6 | 74.9 | inactive |
| Tesk1 | 3 | 145 | 61.7 | active |
| Polr1c | 1 | 58 | 64.2 | inactive |
| Polr1c | 2 | 62.8 | 86.4 | inactive |
| Polr1c | 3 | 29.9 | 49.7 | inactive |
| Hr | 1 | 98.3 | 84.7 | inactive |
| Hr | 2 | 74.9 | 84.5 | inactive |
| Hr | 3 | 82.6 | 99 | inactive |
| Camkk2 | 1 | 71.8 | 57.2 | inactive |
| Camkk2 | 2 | 54.6 | 58.9 | inactive |
| Camkk2 | 3 | 92.8 | 71.3 | inactive |
